Laboratory results taken from patent US20220323445A1, “REDUCING IMMUNOGENICITY TO PEGLOTICASE” (Horizon Therapeutics Ireland DAC, priority 2020, published 2022).
Further values from the same series stand in other lists.

Test system: serum uric acid (sUA)
Assay: Serum uric acid (sUA) levels and sUA responders, open-label study of pegloticase with MTX (NCT03635957)
Assay type: in vivo, human
Method: The primary objective is to estimate the response rate during Month 6 (Weeks 20, 22, and 24), as measured by the sustained normalization of serum uric acid (SUA) to <6 mg/dL for at least 80% of the time during Month 6 in subjects receiving KXX with MTX.
The primary efficacy outcome endpoint is the sustained normalization of SUA to <6 mg/dL for at least 80% of the time during month 6 (weeks 20, 22, and 24) in subjects receiving KXX with MTX. This is slightly below the urate solubility threshold and this threshold has been the accepted standard for nearly all modern gout trials. Participants who achieve this endpoint were classified as “responders.” Serum uric acid (SUA) responders may also be defined as participants achieving and maintaining SUA <6 mg/dL for at least 80% of the time during Month 6 (Weeks 20, 22, and 24).
Blood samples may be collected prior to each pegloticase infusion for measurement of SUA levels using the Beckman Coulter AU System Uric Acid procedure. Participants were declared “non-responders” if there were SUA measures >6 mg/dL at 2 consecutive study visits beginning with the week 2 visit. […] If the SUA goal is not maintained before or at the 12-week mark, it was assumed that the participant had developed clinically relevant anti-pegloticase antibody and they received no further infusions. This assumption and subsequent discontinuation of pegloticase was consistent with the protocol of large phase III randomized controlled trials and the product label. A formal stopping rule was 2 occasions of SUA levels of greater than 6 mg/dL.
Clinical Chemistry—Blood samples were collected prior to each pegloticase infusion for measurement of SUA levels (primary efficacy parameter) using the Beckman Coulter AU System Uric Acid procedure. In this procedure uric acid is converted to hydrogen peroxide. Hydrogen peroxide reacts with reagent to produce a chromophore which is read bichromatically at 660/800 nm. The amount of dye formed is proportional to the uric acid concentration in the sample.
Serum samples for measurement of SUA levels were collected at the Screening Visit, the Week −4 Visit (prior to the first dose of MTX), and the Week −2 Visit during the MTX Run-in Period; within 48 hours prior to each pegloticase infusion and after the end of each pegloticase infusion prior to discharge from the site during the Pegloticase+IMM Period; at the non-infusion Week 52/End of Study/Early Termination Visits and at the Post Treatment 3 and 6 Month Follow-up Visits. Additional serum samples for SUA levels were collected at optional non-infusion (Frequent Sampling) Visits at Weeks 1 and 7. […] Subjects with SUA level >6 mg/dL at 2 consecutive visits beginning at Week 2 visit discontinued treatment, completed the End of Pegloticase Infusion Visit procedures within 2 weeks and continued the subject visits according to the protocol (without treatment).
Efficacy analyses were performed using the modified intention-to-treat (mITT) population, defined as all enrolled subjects who received ≥1 dose of pegloticase. The proportion of Month 6 responders was summarized, along with a 95% confidence interval for the proportion. The proportion of Month 3 and overall (Months 3 and 6 combined) responders was analyzed similarly.
A subject was declared a non-responder if the subject had SUA level >6 mg/dL at 2 consecutive study visits beginning with the Week 2 Visit. In addition, a subject who withdraws from study treatment for any reason after the first dose of pegloticase in the KXX+MTX Period and prior to Month 6 (for the primary endpoint) or Month 3 (for the secondary endpoint) was considered a non-responder if SUA values were not collected at the planned time points.
Patients were administered oral MTX (15 mg/week) and folate (1 mg/day) 4 weeks prior to the first pegloticase infusion (Day 1) and throughout the pegloticase treatment period. […]

[1] = Week 8 - Post-Infusion, Month 6 sUA Non-Responders
[2] = Week 8 - Post-Infusion, Month 6 sUA Responders
[3] = Week 8 - Pre-Infusion, Month 6 sUA Non-Responders
[4] = Week 8 - Pre-Infusion, Month 6 sUA Responders
[5] = Week 10 - Pre-Infusion, Month 6 sUA Non-Responders
[6] = Week 10 - Pre-Infusion, Month 6 sUA Responders

B1: pegloticase (protein)
chain: TYKKNDEVEFVRTGYGKDMIKVLHIQRDGKYHSIKEVATTVQLTLSSKKDYLHGDNSDVIPTDTIKNTVNVLAKFKGIKSIETFAVTICEHFLSSFKHVIRAQVYVEEVPWKRFEKNGVKHVHAFIYTPTGTHFCEVEQIRNGPPVIHSGIKDLKVLKTTQSGFEGFIKDQFTTLPEVKDRCFATQVYCKWRYHQGRDVDFEATWDTVRSIVLQKFAGPYDKGEYSPSVQKTLYDIQVLTLGQVPEIEDMEISLPNIHYLNIDMSKMGLINKEEVLLPLDNPYGKITGTVKRKLSSRL
modifications: monomethoxy PEG conjugated; Krystexxa Sequence
notes: covalent conjugate of uricase produced by a genetically modified strain of Escherichia coli and monomethoxypoly (ethylene glycol)
Week 7, Month 6 sUA Responders
  sUA Change from Baseline, Median: -7.85 mg/dL
  sUA Observed, Median: 0.30 mg/dL
[1]
  sUA Change from Baseline, Median: -9.10 mg/dL
  sUA Observed, Median: 0.30 mg/dL
[2]
  sUA Change from Baseline, Median: -8.80 mg/dL
  sUA Observed, Median: 0.30 mg/dL
[3]
  sUA Change from Baseline, Median: -0.50 mg/dL
  sUA Observed, Median: 8.90 mg/dL
[4]
  sUA Change from Baseline, Median: -8.60 mg/dL
  sUA Observed, Median: 0.30 mg/dL
[5]
  sUA Change from Baseline, Median: -1.30 mg/dL
  sUA Observed, Median: 8.10 mg/dL
[6]
  sUA Change from Baseline, Median: -8.80 mg/dL
  sUA Observed, Median: 0.30 mg/dL
